Some results were stated once for a whole list of compounds, not compound by compound.
tested on: Myzus persicae; test: Test of control effect on Myzus persicae (foliar application, potted Chinese cabbage); assay type: in vivo; details: 500 ppm, foliar application to potted Chinese cabbage, 6 days after application

| SMILES | control effect (control rate), activity level |
| --- | --- |
| CCSc1cc(C(F)(F)F)ccc1-c1nc2cc(C(F)(F)F)nnc2n1CCOC [Compound 2-10] | A (the control rate is 100%) |
| CC[S+]([O-])c1cc(C(F)(F)F)ccc1-c1nc2cc(C(F)(F)F)nnc2n1CCOC (stereo not shown) [Compound 2-11] | A (the control rate is 100%) |
| CSCSc1cc(C(F)(F)F)ccc1-c1nc2cc(C(F)(F)F)nnc2n1C [Compound 3-52] | A (the control rate is 100%) |
| CCSc1cc(C(F)(F)F)ccc1-c1nc2cc(SC(C)=O)nnc2n1C [Compound 5-11] | A (the control rate is 100%) |

Source: US9936703B2, “Condensed heterocyclic compound or salt thereof, agricultural and horticultural insecticide comprising the compound, and method for using the insecticide” (NIHON NOHYAKU CO., LTD., priority 2013, dated 2018)
